According to patent US6656931B2, “Vasopressin antagonist and diuretic combination” (Wyeth Holdings Corporation, priority 1999, dated 2003):
Where two headings read alike, the source gives them in different places.

Key:
[1] = test system: renal function in anesthetized rats
Protocol: NaCl reabsorption in the thick ascending limb of the Loop of Henle (TALH) creates free water that is reabsorbed in the collecting duct in the presence of vasopressin. […] Either V (3 mg/kg), F (5 mg/kg), both V and F (V/F) or the vehicles were administered intraduodenally.

[2] = Human single dose crossover drug interaction study, pharmacokinetics; type: in vivo
Protocol: (§1) A randomized, 3-period crossover designed, single dose drug interaction study was conducted in healthy men to evaluate the potential pharmacodynamic and pharmacokinetic interaction between VPA-985 and furosemide in 12 healthy men. The study lasted approximately 30 days, and included a pre-enrollment evaluation of up to 2 weeks before dose administration, and three 2-day (2-night) confinement periods. The doses were separated by at least a 1 week interval. The clinical portion of the study was completed in approximately 2 months.
The study drugs were a single oral dose of VPA-985 75-mg suspension, furosemide 40-mg tablet, and a VPA-985 75-mg suspension with a furosemide 40-mg tablet. The VPA-985 suspension (25 mg and 50 mg powder reconstituted) was administered in 150 mL of Sprite® brand lemon-lime soda (a product of The Coca-Cola Company) followed by 100 mL of room-temperature water (250 mL of fluid total). Furosemide (40 mg tablets) was administered with 250 mL of room temperature water. When the 2 medications were administered together, furosemide was administered with the 100 mL of room temperature water, thereby assuring that all doses were administered with a total of 250 mL of fluid.
(§2) Pharmacokinetic and pharmacodynamic data for both VPA-985 and furosemide were analyzed by using model-independent methods. Areas under concentration-time curves(AUCT) (AUC) and AUC truncated at the last observed concentration (CT)AUCT) were determined by using the linear/log trapezoidal method. Statistical comparisons were made using by an analysis of variance (ANOVA). Confidence limits (90%) for pharmacokinetic parameters were constructed on a log scale using the two one-sided tests procedure. An interaction was judged to be significant if a 35% difference was detected between either single agent and the two drugs administered concomitantly.

healthy men = assay: Human single dose crossover drug interaction study, pharmacodynamics (urine flow, electrolytes); type: in vivo; details: after administration of single doses
Protocol: as §1
The study drugs were a single oral dose of VPA-985 75-mg suspension, furosemide 40-mg tablet, and a VPA-985 75-mg suspension with a furosemide 40-mg tablet. The VPA-985 suspension (25 mg and 50 mg powder reconstituted) was administered in 150 mL of Sprite® brand lemon-lime soda (a product of The Coca-Cola Company) followed by 100 mL of room-temperature water (250 mL of fluid total). […]
as §2, with “Statistical comparisons were made using by an analysis of variance (ANOVA). Confidence limits (90%) for pharmacokinetic parameters were constructed on a log scale using the two one-sided tests procedure.” left out

[3] = male, human, in vivo, single oral dose furosemide 40-mg tablet alone, healthy men

AUC of furosemide, versus furosemide alone ([2]; after coadministration with VPA-985 75 mg): no difference | reduction of furosemide Cmax with VPA-985 relative to furosemide alone ([2]; furosemide 40 mg with VPA-985 75 mg versus furosemide alone): less than 10% | Cmax ([2]; male, human, in vivo, oral, furosemide 40-mg tablet coadministered with VPA-985 75-mg suspension, healthy men): 1.21 ng/mL | AUC [2, 3]: 2.62 ng·h/mL | Cmax [2, 3]: 1.3 ng/mL | CL renal ([2]; male, human, urine, single oral dose furosemide 40-mg tablet alone, healthy men, read-out: mean CLr of furosemide (converted)): 1.33 mL/min/kg
SMILES: NS(=O)(=O)c1cc(C(=O)O)c(NCc2ccco2)cc1Cl [furosemide]
Na+ excretion ([1]; after intraduodenal administration (V 3 mg/kg, F 5 mg/kg)): 1.77±0.60 μEq/min | Na+ excretion ([1]; baseline, before compound administration): 0.09±0.02 μEq/min | tmax of peak effect in urine flow (healthy men): approximately 1.5 h
